# Data as given in PubChem BioAssay AID1259415 (National Center for Advancing Translational Sciences (NCATS), 2018).
# Out of some 410,000 compounds screened, about 18,000 (4.4%) were called active. Inconclusive results, whose numbers are uncertain, are shown with a selection of clear calls. No stated cut-off is given here; in the data, active means activity change below about -60%; inconclusive means no clear call, values can overlap the other calls; inactive means above about -39%.
# Assay: qHTS Assay for inhibitors of the human cytomegalovirus (HCMV)
# Details: HFF cells, HCMV-luciferase reporter, 72 h; at 57.5 µM; hits give low values
# Summary of the method: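 Screen run at 2 compound doses on HFFs infected with reporter HCMV, MOI 1 PFU/cell. Luciferase activity from cell lysates at 72 h post infection gave inhibition relative to buffer-only and Salinomycin wells.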
# On the % scale 0 is the no-effect control and ±100 the full control effect.
row,SMILES,"activity change, negative = inhibition"
1,COc1ccc(Cn2c(C)c(C)c(C#N)c2NC(=O)Nc2cccc(C)c2)cc1,active: -66.5%
2,CCn1cnc2c1c(=O)n(CC(=O)OC(C)C(N)=O)c(=O)n2Cc1ccccc1 (stereo not drawn),inconclusive: -55.6%
3,COc1ccc(C2=CC(c3cccc(C)c3)n3nnnc3N2)cc1 (stereo not drawn),inactive: -13%
4,COc1ccc(CNS(=O)(=O)c2cc(-c3cc(C)no3)ccc2C)cc1OC,inconclusive: -46.5%
5,CN(C)c1cnn(-c2ccccc2)c(=O)c1Cl,inconclusive: -42.4%
6,COc1cc(NC(=O)Cn2nc(-c3ccc(C)c(C)c3)ccc2=O)cc(OC)c1,inactive: 10.3%
7,CCOC(=O)c1[nH]c2c(c1Cc1ccccc1OC)C(=O)CC(c1ccc(OCC)cc1)C2 (stereo not drawn),inactive: -18.5%
8,CCCNC(=O)CN(c1ccccc1)S(=O)(=O)c1ccc(OC)c(OC)c1,inconclusive: -47.2%
9,COc1ccc(NC(=O)C2Cc3c(-c4cccc(NC(C)=O)c4)ccnc3O2)cc1 (stereo not drawn),inconclusive: -58.8%
10,CCOC(=O)c1ccccc1NC(=O)CSc1nnc(C)c(=O)[nH]1,inconclusive: -43.2%
11,CC(=O)c1c(C)[nH]c(C(=O)OCC(=O)Nc2ccc(C)cc2[N+](=O)[O-])c1C,inconclusive: -52%
12,COc1cccc(C(=O)Nc2ccc3nc(N4CCC(C)CC4)cc(C)c3c2)c1,inconclusive: -56.4%
13,Cc1[nH][nH]c(=O)c1C(c1c(C)[nH][nH]c1=O)c1cn(Cc2cccc3ccccc23)c2ccccc12,inactive: 23.3%
14,COc1ccc(-n2nc([N+](=O)[O-])c(=NCCCN3CCCC3=O)n2O)cc1,inactive: -21.7%
15,CCOc1ccc(N(CC(=O)NC2CCCC2)S(=O)(=O)c2ccccc2)cc1,active: -64%
16,CC(C)CN(C(=O)COC(=O)c1ccccc1NCc1ccco1)c1c(N)n(Cc2ccccc2)c(=O)[nH]c1=O,inconclusive: -47.9%
17,COc1cc(CC(=O)O)ccc1O,inconclusive: -46%
18,CC1CC(C)CN(C(=O)c2cccc(S(=O)(=O)N(C)c3ccccc3)c2)C1 (stereo not drawn),inconclusive: -58.5%
19,CN(Cc1ccccc1)C(=O)C1CCN(S(=O)(=O)c2cccc3nsnc23)CC1,inconclusive: -45.2%
20,Cc1ccccc1CNC(=O)Cn1ccc2cc(S(=O)(=O)N3CCCCCC3)ccc21,inconclusive: -47.2%
21,O=C(c1ccco1)N1CCN(c2nc3c(Cl)cccc3s2)CC1,inconclusive: -48.4%
22,Nc1nc2ncc(-c3ccsc3)c(N)n2n1,inactive: -11.3%
23,COc1ccc(N2C[C@H](Cc3ccccc3)[C@@H](CC(=O)Nc3ccccc3)C2=O)cc1,inconclusive: -47.8%
24,COc1ccccc1NC(=O)Cc1c(C(=O)O)[nH]c2ccc(Cl)cc12,inactive: -25.8%
25,O=C1C(Cl)=C(N2CCN(Cc3ccccc3)CC2)C(=O)N1c1ccccc1,inconclusive: -42.7%
26,Cc1cccc(NC(=O)CSc2nc3ccc(NC(=O)c4ccco4)cc3s2)c1,inconclusive: -47%
27,Cn1c(-c2ccc3ccccc3n2)[n+](C)c2ccccc21,active: -71.9%

row,SMILES,"activity change, negative = inhibition"
1,CCN(CC)Cc1nc2c(c(=O)[nH]1)C1(CCCC1)Cc1ccccc1-2,inactive: 26.4%
2,O=c1c(-c2n[nH]c(=S)n2-c2ccccc2)cccn1Cc1cccc(Cl)c1,inconclusive: -54.9%
3,N#Cc1nc(N2CCCC2)nc(N2CCCC2)n1,inconclusive: -45.3%
4,CCOC(=O)c1c(NC(=O)C2=C(C)NC(=S)NC2c2ccc(F)cc2F)sc(C)c1C (stereo not drawn),inconclusive: -44.9%
5,COc1ccccc1CCn1cnc(-c2ccccc2F)c1CC(C)C,active: -83.5%
6,CCc1nc(SCC(=O)Nc2ccccc2OC)c2c(C)c(C)sc2n1,inactive: -36.7%
7,O=C(Nc1ccc(NC(=O)C2CC2)cc1)c1cccs1,active: -77.5%
8,CN(C)CCCN(C(=O)CCS(=O)(=O)c1ccccc1)c1nc2cc3c(cc2s1)OCO3,active: -113%
9,Cc1ccc(CN(Cc2ccccn2)C(=O)Nc2c(F)cccc2F)cc1,inconclusive: -40.8%
10,N#Cc1c(NC(=O)c2cc3nc(-c4ccc(Br)cc4)cc(C(F)(F)F)n3n2)sc2c1CCCC2,inconclusive: -46.9%
11,CCOC(=O)C1=C[C@@H](c2ccccc2)N(S(=O)(=O)c2ccc(C)cc2)[C@H]1c1ccc(OC)cc1,inconclusive: -45.4%
12,COc1ccc(C)cc1NC(=O)CSc1nc2ccccc2nc1N1CCCCC1,inactive: 33.7%
13,O=C(COC(=O)c1ccccc1N1C(=O)C2C3CCC(C3)C2C1=O)c1ccccc1 (stereo not drawn),inactive: 6.3%
14,CC1CCc2cc(F)ccc2N1S(=O)(=O)c1ccc(Cl)nc1 (stereo not drawn),inconclusive: -47%
15,O=C(CO/N=C/c1ccccc1)Nc1c(F)c(F)c(F)c(F)c1F,inconclusive: -48.4%
16,CC(C)C[C@H]1CN([C@@H](Cc2ccc(O)cc2)CN2CCC[C@H]2CN2C(=O)C(=O)NC[C@@H]2Cc2ccccc2)C(=O)C(=O)N1CC1CCCCCC1,inactive: 0.683%
17,CCOC(=O)C1=C(CS(=O)(=O)c2c(C)cc(C)cc2C)NC(=O)NC1c1cccc(OC)c1 (stereo not drawn),inconclusive: -45.2%
18,CCOC(=O)C1=CN(CC)S(=O)(=O)NC1CC (stereo not drawn),inactive: -9.68%
19,Cn1c(=O)c2c(SCC(=O)NCc3ccco3)nc(CC(C)(C)C)nc2n(C)c1=O,inconclusive: -42.2%
20,CC(C)[C@H](NC(=O)N1c2ccccc2NC(=O)[C@@H]1C(C)C)C(=O)N[C@@H](Cc1c[nH]c2ccccc12)C(=O)O,inactive: 23.1%
21,CCCNC(=O)C1CCN(S(=O)(=O)c2ccc3c(c2)CCCN3C(C)=O)CC1,inactive: 6.02%
22,COC(CNC(=O)c1ccc(N2CCc3ccccc32)c([N+](=O)[O-])c1)OC,inconclusive: -49.6%
23,COc1cccc(C(=O)Nc2ccccc2OCc2cc(=O)n3cc(C)ccc3n2)c1,inactive: 2.18%
24,CCc1ccc(NC(=O)CSc2nc3n[nH]c(C)c3c(=N)n2-c2ccccc2C)cc1,inconclusive: -51.1%
25,CC(C)NC(=O)CS(=O)(=O)c1ccccc1,inactive: -33.4%
26,CCOC(=O)[C@]12CCC=C1N(Cc1ccccc1)C(=O)[C@H](CC(=O)NCc1ccccc1)C2,inactive: 9.38%

# 2 records drawn at random from those above:
row,SMILES,"activity change, negative = inhibition"
6,CCc1nc(SCC(=O)Nc2ccccc2OC)c2c(C)c(C)sc2n1,inactive: -36.7%
9,Cc1ccc(CN(Cc2ccccn2)C(=O)Nc2c(F)cccc2F)cc1,inconclusive: -40.8%
